The test system of the test is L1210 leukemia ip in BDF1 mice, survival T/C. The test is described as follows: NCI In Vivo Anticancer Drug Screen. Data for tumor model L1210 Leukemia (intraperitoneal) in B6D2F1 (BDF1) mice. The conditions noted are these: T/C endpoint: mean survival time, higher T/C = longer survival.
Setting [1] is: dose: 100.0 mg/kg/injection, schedule: Q04DX002 (ip), vehicle: Klucel (hydroxypropylcellulose) (HPC).
Setting [2] is: dose: 200.0 mg/kg/injection, schedule: Q04DX002 (ip), vehicle: Klucel (hydroxypropylcellulose) (HPC).
The mark [3] stands for this setting: dose: 400.0 mg/kg/injection, schedule: Q04DX002 (ip), vehicle: Klucel (hydroxypropylcellulose) (HPC).
Setting [4] is: dose: 200.0 mg/kg/injection, schedule: Q01DX009 (ip), vehicle: saline.
Where [5] appears, read: dose: 400.0 mg/kg/injection, schedule: Q01DX001 (ip), vehicle: saline.
The mark [6] stands for this setting: dose: 25.0 mg/kg/injection, schedule: Q01DX009 (ip), vehicle: saline with Tween-80.

The list is a part of this screen's results and no random one: it is rich in T/C values a quarter to a half above the control, in often repeated tests (any T/C) and in doses without a T/C. Other doses and runs of a compound stand elsewhere. T/C is the treated group as % of the vehicle group. Some entries give survivors of the animals treated and no T/C: the source holds a T/C of zero for them, seemingly a mark for toxic or unscored doses. Some survivor counts are full or nearly so, which does not show that the dose was tolerated: the source hardly ever lists a survival T/C far under the control, and the zero likely stands for such cases as well. Counts of survivors are from the toxicity check (mostly the fifth day) where no day follows; animals may have died later. Schedule codes are those of the source, taken here to give the interval after Q, in days (D) or hours (H), and the number of doses after X. Some schedule codes hold Z or #, which are not explained here. Some doses were run more than once; the values are given in rising order. Some molecules as drawn cover several salts, stereoisomers or complexes of the source; a dose is that of the sample tested. For survival time, this PubChem deposit counts one and a half times the control or more as active, and values a quarter to a half above the control carry no call in these data; other NCI protocols may use other cut-offs.

Consider `NC(CSS(=O)(=O)O)=NC1CC2CCC1C2` (stereo not given), for which the T/C (dose: 25.0 mg/kg/injection, schedule: Q04DX002 (ip), vehicle: saline) was 87, 96, 100, 115 % of control. The survivor count (dose: 50.0 mg/kg/injection, schedule: Q01DX001 (ip), vehicle: saline with Tween-80) was 3 of 6; the survivor count (dose: 50.0 mg/kg/injection, schedule: Q04DX002 (ip), vehicle: Klucel (hydroxypropylcellulose) (HPC)) is on record as 1 of 3; the survivor count (dose: 50.0 mg/kg/injection, schedule: Q04DX002 (ip), vehicle: saline) is 1 of 6; the survivor count (dose: 100.0 mg/kg/injection, schedule: Q01DX001 (ip), vehicle: saline with Tween-80) is recorded as 1 of 6; the survivor count under setting [1] is given as 1 of 3; the survivor count (dose: 100.0 mg/kg/injection, schedule: Q04DX002 (ip), vehicle: saline with Tween-80) is 0 of 3 and 0 of 6. The survivor count is, setting by setting: (dose: 100.0 mg/kg/injection, schedule: Q04DX002 (ip), vehicle: saline) 0 of 3 and 0 of 6; under setting [2], 1 of 3; (dose: 200.0 mg/kg/injection, schedule: Q04DX002 (ip), vehicle: saline with Tween-80) 0 of 3 and 0 of 6; under setting [3], 0 of 3; (dose: 400.0 mg/kg/injection, schedule: Q04DX002 (ip), vehicle: saline with Tween-80) 0 of 3 and 0 of 6.
With `CCN(CC)C(=O)c1ccncc1`, the survivor count under setting [4] was 6 of 6.
Take `CC1=CCC(C(C)C)C=C1` (stereo not given): the survivor count under setting [4] was 1 of 6 and the survivor count (dose: 400.0 mg/kg/injection, schedule: Q01DX009 (ip), vehicle: saline) is listed as 0 of 6.
Turning to `CCCCCCCCCCCC(=O)[O][Hg][c]1ccccc1`, the survivor count (dose: 150.0 mg/kg/injection, schedule: Q01DX001 (ip), vehicle: other) was 0 of 6 and the survivor count (dose: 300.0 mg/kg/injection, schedule: Q01DX001 (ip), vehicle: other) is 0 of 6.
As for `CCCCCCCCCCCCCCCCCCNC(=O)Nc1nccs1`, the survivor count under setting [1] is 3 of 3.
Consider `CC(C)=CCC/C(C)=C\CCl`, for which the survivor count by setting is: (dose: 200.0 mg/kg/injection, schedule: Q01DX009 (ip), vehicle: saline with Tween-80) 6 of 6; (dose: 400.0 mg/kg/injection, schedule: Q01DX009 (ip), vehicle: saline with Tween-80) 0 of 6.
Regarding `OC1CCCN(Cc2ccccc2)C1` (stereo not given), the survivor count under setting [5] is listed as 0 of 6.
In the case of `NC(=O)c1cc(Cl)nc(Cl)n1`, the survivor count is, setting by setting: (dose: 100.0 mg/kg/injection, schedule: Q01DX Z (ip), vehicle: methylcellulose (MC)) 3 of 6; (dose: 200.0 mg/kg/injection, schedule: Q01DX Z (ip), vehicle: methylcellulose (MC)) 2 of 6.
`C=CCN1/C(=C\C=C\c2ccc3cc(C)ccc3[n+]2CC=C)C=Cc2cc(C)ccc21`: the survivor count is given as 3 of 6 (dose: 2.34 mg/kg/injection, schedule: Q01DX001 (ip), vehicle: steroid suspending solution); 6 of 6 (dose: 4.68 mg/kg/injection, schedule: Q01DX001 (ip), vehicle: steroid suspending solution); 5 of 6 (dose: 9.38 mg/kg/injection, schedule: Q01DX001 (ip), vehicle: steroid suspending solution); 2 of 6 (dose: 18.75 mg/kg/injection, schedule: Q01DX001 (ip), vehicle: steroid suspending solution); 3 of 6 (dose: 37.5 mg/kg/injection, schedule: Q01DX001 (ip), vehicle: steroid suspending solution).
With `Cc1c2ccccc2c(CSC(=N)N)c2ccccc12`, the T/C (dose: 8.0 mg/kg/injection, schedule: Q01DX009 (ip), vehicle: saline) is 134 % of control and the T/C (dose: 12.5 mg/kg/injection, schedule: Q01DX009 (ip), vehicle: saline) is 127 % of control. Further, the survivor count (dose: 18.75 mg/kg/injection, schedule: Q01DX009 (ip), vehicle: saline) was 5 of 6; the survivor count (dose: 50.0 mg/kg/injection, schedule: Q04DX003 (ip), vehicle: saline) is given as 4 of 6; the survivor count (dose: 100.0 mg/kg/injection, schedule: Q04DX003 (ip), vehicle: saline) was 1 of 6 and 8 of 8; the survivor count (dose: 200.0 mg/kg/injection, schedule: Q04DX003 (ip), vehicle: saline) is 1 of 8; the survivor count (dose: 400.0 mg/kg/injection, schedule: Q04DX003 (ip), vehicle: saline) is given as 0 of 8.
Regarding `CN(CCCN1C(=O)c2ccccc2C1=O)c1ccc(N=O)cc1`, the survivor count reads like this: (dose: 200.0 mg/kg/injection, schedule: Q01DX001 (ip), vehicle: Klucel (hydroxypropylcellulose) (HPC)) 2 of 6; (dose: 400.0 mg/kg/injection, schedule: Q01DX001 (ip), vehicle: Klucel (hydroxypropylcellulose) (HPC)) 1 of 6.
For `ClCCN(CCCl)CCCN1c2ccccc2Sc2ccc(Cl)cc21`, the survivor count is 5 of 6 under setting [6]; 3 of 6 (dose: 50.0 mg/kg/injection, schedule: Q01DX009 (ip), vehicle: saline with Tween-80); 1 of 6 (dose: 75.0 mg/kg/injection, schedule: Q04DX003 (ip), vehicle: alcohol); 0 of 6 (dose: 113.0 mg/kg/injection, schedule: Q04DX003 (ip), vehicle: alcohol); 0 of 6 (dose: 170.0 mg/kg/injection, schedule: Q04DX003 (ip), vehicle: alcohol).
`CCCCCCCCCCCC[N+](CCCCCCCCCCCC)=C1SCCS1`: the survivor count is on record as 0 of 3 under setting [1], 0 of 3 under setting [2] and 1 of 3 under setting [3].
Take `O=P1(O)[O][Sn]([c]2ccccc2)([c]2ccccc2)[O]1`: the survivor count is, setting by setting: under setting [6], 0 of 3; (dose: 50.0 mg/kg/injection, schedule: Q01DX003 (ip), vehicle: saline) 1 of 3; (dose: 100.0 mg/kg/injection, schedule: Q01DX003 (ip), vehicle: saline) 1 of 3; (dose: 200.0 mg/kg/injection, schedule: Q01DX003 (ip), vehicle: saline) 0 of 3.
`COc1cc(-c2ccc(Nc3ccccc3C(=O)O)c(OC)c2)ccc1N`: the survivor count is, setting by setting: (dose: 50.0 mg/kg/injection, schedule: Q01DX Z (ip), vehicle: carboxymethylcellulose (CMC)) 3 of 6 and 4 of 6; (dose: 75.0 mg/kg/injection, schedule: Q01DX Z (ip), vehicle: carboxymethylcellulose (CMC)) 1 of 6; under setting [5], 1 of 6.
Regarding `CCN1C(=O)C2C3C=CC(C3)C2C1=O` (stereo not given), the survivor count was 1 of 3 and 2 of 6 (dose: 100.0 mg/kg/injection, schedule: Q04DX003 (ip), vehicle: saline with Tween-80); 1 of 6 (dose: 200.0 mg/kg/injection, schedule: Q04DX003 (ip), vehicle: saline with Tween-80); 0 of 6 (dose: 400.0 mg/kg/injection, schedule: Q04DX003 (ip), vehicle: saline with Tween-80).

Source of the values: PubChem BioAssay AID248 (DTP/NCI, 2004).
